In PMC7220279:
No constants are given. Whether binding was seen depends on the method and setting. In cells and extracts the contact can be indirect. Some entries that bind do so weakly or less than the wild type. Tags and fused reporters may be left off the sequences shown.

Protein sequences, listed by entry. Tags and fused reporters are not part of them.
UniProt O88522: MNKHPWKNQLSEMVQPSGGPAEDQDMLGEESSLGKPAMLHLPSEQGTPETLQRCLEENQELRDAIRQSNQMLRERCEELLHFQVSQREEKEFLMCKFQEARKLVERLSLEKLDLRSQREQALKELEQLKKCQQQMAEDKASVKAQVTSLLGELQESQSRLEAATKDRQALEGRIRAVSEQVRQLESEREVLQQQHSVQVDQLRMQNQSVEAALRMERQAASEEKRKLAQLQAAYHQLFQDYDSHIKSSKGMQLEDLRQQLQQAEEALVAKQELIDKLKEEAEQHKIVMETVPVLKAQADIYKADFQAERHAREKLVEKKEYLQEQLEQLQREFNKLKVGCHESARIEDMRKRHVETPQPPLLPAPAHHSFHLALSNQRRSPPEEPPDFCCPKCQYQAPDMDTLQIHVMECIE

Tests used:
Assay in all cases: co-IP; 293T cells co-transfected with Myc-Mib2 and a tagged IKK subunit; lysis in 50 mM Tris-HCl pH 7.4, 150 mM NaCl, 1% Triton X-100; immunoprecipitation with Flag or HA antibody-conjugated beads at 4 °C for 2 h; Myc-Mib2 detected by Western blot
Flag-tagged IKKα = biological target: T1, Flag-tagged IKKα (UniProt Q60680)
T1 sequence: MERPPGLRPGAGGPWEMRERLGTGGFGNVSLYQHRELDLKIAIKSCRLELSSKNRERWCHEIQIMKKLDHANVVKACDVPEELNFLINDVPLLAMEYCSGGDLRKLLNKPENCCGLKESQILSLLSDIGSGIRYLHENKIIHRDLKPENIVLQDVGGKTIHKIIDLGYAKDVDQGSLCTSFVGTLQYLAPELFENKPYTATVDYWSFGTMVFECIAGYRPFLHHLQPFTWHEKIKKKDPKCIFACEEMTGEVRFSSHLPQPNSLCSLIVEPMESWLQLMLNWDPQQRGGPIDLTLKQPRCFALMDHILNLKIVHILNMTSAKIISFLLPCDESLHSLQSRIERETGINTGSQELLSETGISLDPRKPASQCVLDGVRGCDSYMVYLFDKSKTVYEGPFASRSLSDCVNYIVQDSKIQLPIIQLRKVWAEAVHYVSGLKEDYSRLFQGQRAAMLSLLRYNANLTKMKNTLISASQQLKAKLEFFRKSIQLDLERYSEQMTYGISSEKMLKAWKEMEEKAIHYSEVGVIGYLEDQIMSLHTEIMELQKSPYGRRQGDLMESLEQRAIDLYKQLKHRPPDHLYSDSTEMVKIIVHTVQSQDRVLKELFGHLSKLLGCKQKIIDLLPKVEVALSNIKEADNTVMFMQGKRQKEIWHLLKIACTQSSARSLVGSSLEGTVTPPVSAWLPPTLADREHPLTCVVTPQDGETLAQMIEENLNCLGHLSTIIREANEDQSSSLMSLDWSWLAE

Flag-tagged IKKγ = Flag-tagged IKKγ (UniProt O88522)
HA-tagged IKKβ = biological target: T2, HA-tagged IKKβ (UniProt O88351)
T2 sequence: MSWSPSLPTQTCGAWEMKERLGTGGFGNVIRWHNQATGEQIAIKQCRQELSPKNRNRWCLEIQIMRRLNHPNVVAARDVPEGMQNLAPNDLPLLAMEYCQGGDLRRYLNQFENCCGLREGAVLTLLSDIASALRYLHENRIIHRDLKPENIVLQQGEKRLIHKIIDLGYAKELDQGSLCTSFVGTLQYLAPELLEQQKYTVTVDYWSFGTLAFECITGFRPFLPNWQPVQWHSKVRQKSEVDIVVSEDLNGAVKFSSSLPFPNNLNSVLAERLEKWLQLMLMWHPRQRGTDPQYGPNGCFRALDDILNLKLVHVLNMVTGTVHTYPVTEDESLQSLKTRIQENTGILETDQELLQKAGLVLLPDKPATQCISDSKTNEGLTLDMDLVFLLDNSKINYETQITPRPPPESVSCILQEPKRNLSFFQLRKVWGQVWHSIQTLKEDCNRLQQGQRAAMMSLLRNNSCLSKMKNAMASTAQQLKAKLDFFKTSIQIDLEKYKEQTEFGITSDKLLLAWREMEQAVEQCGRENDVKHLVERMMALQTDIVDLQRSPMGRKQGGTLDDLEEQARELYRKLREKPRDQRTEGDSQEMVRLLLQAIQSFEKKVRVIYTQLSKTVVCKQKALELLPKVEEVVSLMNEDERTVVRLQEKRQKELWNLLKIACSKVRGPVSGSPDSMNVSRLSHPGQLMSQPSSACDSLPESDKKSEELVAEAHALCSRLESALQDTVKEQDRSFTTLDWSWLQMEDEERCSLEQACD

Measured: binding

B1: Myc-tagged Mib2 (Mind bomb-2) (enzyme, UniProt Q8R516 1-973)
chain: MDLDPHAGVQVGMRVVRGMDWKWGQQDGGEGGVGTVVELGRHGSPSTPDRTVVVQWDQGTRTNYRAGYQGAHDLLLYDNAQIGIRHPNIICDCCKKHGLRGMRWKCRVCFDYDLCTQCYMHNKHDLTHAFERYETSHSRPVTLSPRQGLPRIPLRGIFQGAKVVRGPDWEWGSQDGGEGKTGRVVDIRGWDVETGRSVASVTWADGTTNVYRVGHKGKVDLRCVGEAAGGFYYKEHLPKLGKPAELQRRVSADGQPFQRGDKVKCLLDTDVLRDMQEGHGGWNPRMAEFIGQMGTVHRITDRGDVRVQFNHETRWTFHPGALTKHNSFWVGDVVRVIGDLDTVKRLQAGHGEWTDDMAPALGRVGKVVKVFGDGNLRVAVGGQRWTFSPSCLVAYRPEEDANLDVAERARENKSAASVSVAGSLSVALDKLRTQKSDPEHPGRLVVEAALGNVARALDLLRRHPEQASYHPALVVDTKNQGRTALQVAAYLGQVELVRLLLQARASMDLPDDEGNTVLHYTAMGNQPEATRVLLSAGCAVDARNGTRSTALHVAVQRGFLEVVKILCERGCDVNLPDAHADTPLHSAISAGAGASSIVEVLTEVPGIDVTATNSQGFTLLHHASLKGHVLAVRKILARARQLVDAKKEDGFTALHLAALNNHREVAQVLIREGRCDVNVRNRKLQSPLHLAVQQAHLGLVPLLVDAGCSVNTEDEEGDTALHVALQRHQLLPLVADRAGGDPGPLQLLSRLQASGLPGCTELTVGAAVACFLALEGADVSYANHRGRSPLDLATEGRVLKALQGCAQRFRERQAGGGGGVPPGPRHVLSTPNTVTNLHVSGTAGPEAAECLVCSELALLILFSPCQHRTVCEECARRMKKCIRCQVVISKKLRPDGSEVVNAIQVPGPPRQLVEELQSRYRQMEERITCPICIDSHIRLVFQCGHGACAPCGAALNACPICRQPIRDRIQIFV
binds: all assays above
